Test results published in the supplement of paper PMC10849652.
The list shows a part of the results.

Chains of the proteins cited; added tags and fusions are not shown. Lines headed by an entry give the natural chain unless they say otherwise; changes in a name come on top.
UniProt Q8N5B7: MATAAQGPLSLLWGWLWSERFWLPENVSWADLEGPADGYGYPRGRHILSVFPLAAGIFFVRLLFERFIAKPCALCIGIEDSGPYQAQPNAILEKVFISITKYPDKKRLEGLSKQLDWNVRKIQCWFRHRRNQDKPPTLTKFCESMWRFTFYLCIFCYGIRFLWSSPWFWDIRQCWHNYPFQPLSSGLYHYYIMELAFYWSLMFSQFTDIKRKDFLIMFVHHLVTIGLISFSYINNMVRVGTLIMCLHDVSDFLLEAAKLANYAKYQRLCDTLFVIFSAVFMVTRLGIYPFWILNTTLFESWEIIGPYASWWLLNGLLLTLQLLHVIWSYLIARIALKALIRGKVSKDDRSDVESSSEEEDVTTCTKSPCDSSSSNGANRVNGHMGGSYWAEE
UniProt Q9Y5P4: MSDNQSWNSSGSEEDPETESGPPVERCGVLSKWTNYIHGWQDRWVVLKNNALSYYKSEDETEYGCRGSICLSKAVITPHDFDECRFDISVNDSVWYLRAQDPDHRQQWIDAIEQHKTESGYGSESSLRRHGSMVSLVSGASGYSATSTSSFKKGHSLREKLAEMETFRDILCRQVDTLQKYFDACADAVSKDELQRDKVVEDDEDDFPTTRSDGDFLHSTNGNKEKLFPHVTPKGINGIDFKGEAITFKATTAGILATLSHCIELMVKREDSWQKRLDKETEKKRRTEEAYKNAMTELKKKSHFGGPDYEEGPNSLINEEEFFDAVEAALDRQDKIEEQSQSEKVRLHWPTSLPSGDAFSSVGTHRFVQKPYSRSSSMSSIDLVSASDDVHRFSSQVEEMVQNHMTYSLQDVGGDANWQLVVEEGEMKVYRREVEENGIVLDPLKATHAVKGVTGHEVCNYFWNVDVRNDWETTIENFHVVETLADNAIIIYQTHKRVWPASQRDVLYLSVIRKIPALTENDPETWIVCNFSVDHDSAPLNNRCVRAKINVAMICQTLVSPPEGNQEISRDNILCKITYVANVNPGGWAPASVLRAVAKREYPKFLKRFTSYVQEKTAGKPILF
UniProt Q5VT25: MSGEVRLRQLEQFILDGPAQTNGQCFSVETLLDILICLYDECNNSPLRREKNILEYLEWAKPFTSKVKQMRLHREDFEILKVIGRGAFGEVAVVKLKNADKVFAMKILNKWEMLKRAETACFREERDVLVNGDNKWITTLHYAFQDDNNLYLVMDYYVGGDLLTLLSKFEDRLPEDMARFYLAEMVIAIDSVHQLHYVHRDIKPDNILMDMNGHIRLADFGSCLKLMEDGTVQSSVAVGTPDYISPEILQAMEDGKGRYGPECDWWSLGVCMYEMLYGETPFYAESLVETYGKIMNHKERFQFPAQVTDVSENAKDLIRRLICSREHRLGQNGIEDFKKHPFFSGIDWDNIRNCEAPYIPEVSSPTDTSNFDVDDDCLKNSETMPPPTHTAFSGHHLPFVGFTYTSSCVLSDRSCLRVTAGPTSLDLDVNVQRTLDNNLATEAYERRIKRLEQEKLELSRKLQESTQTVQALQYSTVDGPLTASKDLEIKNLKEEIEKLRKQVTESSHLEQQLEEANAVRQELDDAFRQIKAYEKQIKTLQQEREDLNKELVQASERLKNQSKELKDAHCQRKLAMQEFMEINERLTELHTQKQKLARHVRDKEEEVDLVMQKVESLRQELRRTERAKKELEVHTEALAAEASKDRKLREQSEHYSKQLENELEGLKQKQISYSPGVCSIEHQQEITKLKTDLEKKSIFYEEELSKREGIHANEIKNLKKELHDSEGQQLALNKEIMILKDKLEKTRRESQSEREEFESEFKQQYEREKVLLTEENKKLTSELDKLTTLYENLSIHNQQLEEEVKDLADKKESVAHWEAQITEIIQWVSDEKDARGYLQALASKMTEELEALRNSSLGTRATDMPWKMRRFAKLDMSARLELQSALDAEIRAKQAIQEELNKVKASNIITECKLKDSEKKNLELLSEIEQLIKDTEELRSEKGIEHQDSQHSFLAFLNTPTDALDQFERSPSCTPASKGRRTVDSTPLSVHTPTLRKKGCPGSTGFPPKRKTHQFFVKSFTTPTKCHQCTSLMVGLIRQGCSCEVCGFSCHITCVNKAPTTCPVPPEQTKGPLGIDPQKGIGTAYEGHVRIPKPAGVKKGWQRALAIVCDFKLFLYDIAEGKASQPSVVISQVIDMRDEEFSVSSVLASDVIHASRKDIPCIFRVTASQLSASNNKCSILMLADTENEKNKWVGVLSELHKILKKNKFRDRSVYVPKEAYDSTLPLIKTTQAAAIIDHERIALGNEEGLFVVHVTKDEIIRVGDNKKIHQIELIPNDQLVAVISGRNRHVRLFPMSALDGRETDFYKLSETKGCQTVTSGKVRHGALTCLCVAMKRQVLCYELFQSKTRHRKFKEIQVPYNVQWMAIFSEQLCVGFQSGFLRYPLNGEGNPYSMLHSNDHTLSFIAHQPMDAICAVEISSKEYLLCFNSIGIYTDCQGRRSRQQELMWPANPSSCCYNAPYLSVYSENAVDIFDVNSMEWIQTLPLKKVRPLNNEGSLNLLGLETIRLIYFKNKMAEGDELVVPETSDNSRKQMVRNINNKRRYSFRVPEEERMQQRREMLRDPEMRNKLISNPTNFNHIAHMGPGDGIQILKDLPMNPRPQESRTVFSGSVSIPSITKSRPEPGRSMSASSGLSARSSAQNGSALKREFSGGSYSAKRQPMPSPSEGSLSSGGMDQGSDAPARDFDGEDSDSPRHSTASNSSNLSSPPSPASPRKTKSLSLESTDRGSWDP
UniProt Q7LBR1: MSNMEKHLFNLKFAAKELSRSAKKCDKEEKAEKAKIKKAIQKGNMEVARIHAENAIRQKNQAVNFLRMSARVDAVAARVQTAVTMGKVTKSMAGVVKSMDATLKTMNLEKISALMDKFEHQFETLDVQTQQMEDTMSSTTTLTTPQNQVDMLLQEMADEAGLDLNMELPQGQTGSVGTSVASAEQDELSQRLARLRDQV
UniProt Q9HCK8: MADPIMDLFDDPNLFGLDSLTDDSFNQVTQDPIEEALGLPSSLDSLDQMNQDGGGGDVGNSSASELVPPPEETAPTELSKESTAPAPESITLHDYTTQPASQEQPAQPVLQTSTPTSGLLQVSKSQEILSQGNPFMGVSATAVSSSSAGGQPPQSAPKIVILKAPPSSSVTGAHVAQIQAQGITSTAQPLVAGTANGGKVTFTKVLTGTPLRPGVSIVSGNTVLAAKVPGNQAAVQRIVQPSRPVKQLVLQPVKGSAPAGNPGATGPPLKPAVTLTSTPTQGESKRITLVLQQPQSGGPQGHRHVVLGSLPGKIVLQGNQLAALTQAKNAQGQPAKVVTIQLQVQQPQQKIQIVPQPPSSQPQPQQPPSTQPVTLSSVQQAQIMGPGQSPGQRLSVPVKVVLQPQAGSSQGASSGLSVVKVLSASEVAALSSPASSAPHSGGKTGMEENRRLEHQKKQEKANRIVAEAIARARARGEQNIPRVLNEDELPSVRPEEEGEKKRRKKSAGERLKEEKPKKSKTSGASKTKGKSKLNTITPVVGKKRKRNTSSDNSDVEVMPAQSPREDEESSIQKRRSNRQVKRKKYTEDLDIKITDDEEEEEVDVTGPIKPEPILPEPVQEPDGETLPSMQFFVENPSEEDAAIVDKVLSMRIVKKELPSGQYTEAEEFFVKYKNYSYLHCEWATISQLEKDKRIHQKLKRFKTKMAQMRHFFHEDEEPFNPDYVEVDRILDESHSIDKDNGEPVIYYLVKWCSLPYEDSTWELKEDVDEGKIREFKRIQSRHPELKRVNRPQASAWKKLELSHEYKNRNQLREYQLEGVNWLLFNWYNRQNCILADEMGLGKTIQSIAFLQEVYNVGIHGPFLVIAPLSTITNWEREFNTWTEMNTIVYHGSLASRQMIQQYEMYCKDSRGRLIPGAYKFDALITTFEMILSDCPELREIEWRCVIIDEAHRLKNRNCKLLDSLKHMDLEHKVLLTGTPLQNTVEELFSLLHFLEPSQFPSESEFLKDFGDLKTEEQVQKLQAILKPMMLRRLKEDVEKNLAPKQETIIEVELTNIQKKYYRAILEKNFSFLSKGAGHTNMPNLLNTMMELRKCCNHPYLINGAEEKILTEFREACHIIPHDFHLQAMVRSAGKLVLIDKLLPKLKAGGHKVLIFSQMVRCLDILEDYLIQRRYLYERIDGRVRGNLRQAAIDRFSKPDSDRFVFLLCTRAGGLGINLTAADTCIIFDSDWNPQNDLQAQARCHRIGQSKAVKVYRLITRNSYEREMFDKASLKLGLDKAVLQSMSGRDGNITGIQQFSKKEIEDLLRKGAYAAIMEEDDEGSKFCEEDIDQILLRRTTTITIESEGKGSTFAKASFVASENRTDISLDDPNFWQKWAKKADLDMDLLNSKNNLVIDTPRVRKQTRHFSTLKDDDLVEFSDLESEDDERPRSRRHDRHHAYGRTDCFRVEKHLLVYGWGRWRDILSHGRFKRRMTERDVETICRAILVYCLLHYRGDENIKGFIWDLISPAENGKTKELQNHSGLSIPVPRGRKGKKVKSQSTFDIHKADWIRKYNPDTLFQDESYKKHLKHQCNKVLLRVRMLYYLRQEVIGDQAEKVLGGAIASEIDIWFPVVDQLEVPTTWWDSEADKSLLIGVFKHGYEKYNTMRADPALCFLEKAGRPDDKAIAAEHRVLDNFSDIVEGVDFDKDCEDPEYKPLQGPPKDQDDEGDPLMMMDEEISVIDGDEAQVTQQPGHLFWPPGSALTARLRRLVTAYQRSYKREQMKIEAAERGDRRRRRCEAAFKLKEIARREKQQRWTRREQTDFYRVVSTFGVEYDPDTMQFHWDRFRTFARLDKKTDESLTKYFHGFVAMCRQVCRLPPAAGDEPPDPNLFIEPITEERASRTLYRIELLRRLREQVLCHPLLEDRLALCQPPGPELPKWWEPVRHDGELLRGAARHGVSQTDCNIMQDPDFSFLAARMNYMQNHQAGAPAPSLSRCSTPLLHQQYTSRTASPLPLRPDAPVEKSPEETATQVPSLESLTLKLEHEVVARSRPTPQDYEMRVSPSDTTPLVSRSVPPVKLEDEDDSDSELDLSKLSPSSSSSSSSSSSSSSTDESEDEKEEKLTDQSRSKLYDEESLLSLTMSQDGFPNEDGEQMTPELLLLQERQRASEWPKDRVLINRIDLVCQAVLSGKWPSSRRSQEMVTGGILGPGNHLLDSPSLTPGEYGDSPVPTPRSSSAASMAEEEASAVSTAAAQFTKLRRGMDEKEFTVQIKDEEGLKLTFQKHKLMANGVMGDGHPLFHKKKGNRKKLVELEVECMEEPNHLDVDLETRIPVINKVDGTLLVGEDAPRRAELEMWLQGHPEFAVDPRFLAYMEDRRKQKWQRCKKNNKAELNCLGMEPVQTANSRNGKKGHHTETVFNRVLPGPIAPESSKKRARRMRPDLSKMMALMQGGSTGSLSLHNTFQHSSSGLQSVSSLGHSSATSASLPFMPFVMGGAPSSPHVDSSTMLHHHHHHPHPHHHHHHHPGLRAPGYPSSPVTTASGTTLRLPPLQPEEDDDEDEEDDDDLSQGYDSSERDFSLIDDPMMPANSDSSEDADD
UniProt O14519: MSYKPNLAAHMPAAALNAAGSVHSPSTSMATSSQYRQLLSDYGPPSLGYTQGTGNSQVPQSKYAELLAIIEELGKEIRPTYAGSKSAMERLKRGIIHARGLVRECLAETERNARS
UniProt P50613: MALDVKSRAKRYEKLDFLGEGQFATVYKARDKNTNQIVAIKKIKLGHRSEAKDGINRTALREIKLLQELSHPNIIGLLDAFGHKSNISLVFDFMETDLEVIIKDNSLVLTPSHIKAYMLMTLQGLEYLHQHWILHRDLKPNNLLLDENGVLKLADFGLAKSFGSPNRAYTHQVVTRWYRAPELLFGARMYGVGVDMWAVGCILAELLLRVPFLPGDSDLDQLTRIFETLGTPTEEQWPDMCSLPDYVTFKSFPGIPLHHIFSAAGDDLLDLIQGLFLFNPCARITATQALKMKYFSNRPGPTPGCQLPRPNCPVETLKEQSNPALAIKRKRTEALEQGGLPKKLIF
UniProt Q8N2Z9: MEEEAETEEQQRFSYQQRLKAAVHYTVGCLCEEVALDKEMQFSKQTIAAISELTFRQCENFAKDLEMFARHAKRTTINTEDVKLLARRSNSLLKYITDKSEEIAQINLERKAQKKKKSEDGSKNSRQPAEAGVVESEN
UniProt P50750, whole entry, looked up: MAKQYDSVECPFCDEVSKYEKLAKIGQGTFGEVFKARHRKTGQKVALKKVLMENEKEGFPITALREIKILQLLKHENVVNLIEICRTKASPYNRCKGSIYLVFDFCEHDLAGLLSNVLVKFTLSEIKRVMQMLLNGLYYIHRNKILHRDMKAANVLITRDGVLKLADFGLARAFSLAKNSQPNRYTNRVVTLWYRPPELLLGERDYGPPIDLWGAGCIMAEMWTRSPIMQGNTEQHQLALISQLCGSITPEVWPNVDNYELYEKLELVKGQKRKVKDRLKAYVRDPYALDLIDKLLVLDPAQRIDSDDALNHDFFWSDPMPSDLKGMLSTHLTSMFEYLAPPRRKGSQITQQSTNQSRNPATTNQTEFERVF

Legend:
Assay in all cases: log2 fold change, soluble protein after heating vs DMSO (PISA); higher = thermal stabilisation; K562 cells, 10 uM, 30 min; active = over 0.2 and 3.5 SD of the protein, either way, in both replicates (recomputed)
[1] = compound: C1=CC=C(C=C1)[C@H](COC2=CC3=C(C=C2)NC(=O)N3)NC(=O)C4=CC=CN(C4=O)CC5=CC(=C(C=C5)F)F
Method in brief: (§1)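 K562 cells at 2×10^6 cells/mL were given 10 μM compound for 30 min. Aliquots then went through 3 min of heating across 48°C-58°C, were pooled, and were extracted in PBS with 0.5% NP-40 at 4°C, and the supernatant after 21,000xg for 90 min was quantified by TMTpro 16plex LC-MS/MS with channel sums equalised. Thermal stability relative to control samples, from duplicates, is given as log2 fold change.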

[2] = compound: CC1=C(SC2=C1C(=N[C@H](C3=NN=C(N32)C)CC(=O)N)C4=CC=C(C=C4)Cl)C
Method in brief: as §1

[3] = compound: CC1=C2C(=CC=C1)N=C(N(C2=O)C3=CC=CC=C3C)CN4C=NC5=C(N=CN=C54)N
Method in brief: as §1

[4] = compound: Cc1sc2c(c1C)C(c1ccc(Cl)cc1)=N[C@@H](CC(=O)OC(C)(C)C)c1nnc(C)n1-2
Method in brief: as §1

[5] = compound: c1ccc([C@@H]2C[C@H]2NC2CCNCC2)cc1
Method in brief: as §1

Measured: log2 fold change

CERS5 (UniProt Q8N5B7)
inactive: [1] -0.014 | [2] -0.046 | [3] -0.008 | [4] -0.035 | [5] -0.032

CEP170 isoform 3 (UniProt Q5SW79)
inactive: [1] 0.204

CDS2 (UniProt O95674)
inactive: [1] -0.015 | [2] 0.063 | [3] -0.029 | [4] -0.087 | [5] -0.025

CHERP (UniProt Q8IWX8)
inactive: [1] -0.023 | [2] -0.07 | [3] 0.008 | [4] 0.101 | [5] 0.018

CHCHD3 (UniProt Q9NX63)
inactive: [1] -0.005 | [2] 0.016 | [3] 0.054 | [4] -0.021 | [5] -0.03

CERT isoform 3 (UniProt Q9Y5P4)
inactive: [1] 0.102 | [2] 0.029 | [3] 0.066 | [4] 0.14 | [5] -0.028

CDK5 (UniProt Q00535)
inactive: [1] -0.015 | [2] 0.087 | [3] -0.003 | [4] -0.023 | [5] -0.005

Two consecutive entries already listed, quoted:
CHCHD3 (UniProt Q9NX63)
inactive: [1] -0.005 | [2] 0.016 | [3] 0.054 | [4] -0.021 | [5] -0.03

CERT isoform 3 (UniProt Q9Y5P4)
inactive: [1] 0.102 | [2] 0.029 | [3] 0.066 | [4] 0.14 | [5] -0.028

Further results follow.

CENPO (UniProt Q9BU64)
inactive: [1] -0.125 | [2] 0.01 | [3] 0.199 | [4] -0.169 | [5] -0.036

CHCHD2 (UniProt Q9Y6H1)
inactive: [1] -0.016 | [2] 0.082 | [3] -0.007 | [4] -0.065 | [5] -0.011

CDYL (UniProt Q9Y232)
inactive: [1] -0.012 | [2] -0.005 | [3] -0.084 | [4] 0.048 | [5] 0.042

CDIPT (UniProt O14735)
inactive: [1] 0.013 | [2] -0.005 | [3] 0.01 | [4] -0.019 | [5] 0.09

CENPF (UniProt P49454)
inactive: [1] 0.021 | [2] -0.027 | [3] 0.007 | [4] 0.002 | [5] 0.041

CHMP2B (UniProt Q9UQN3)
inactive: [1] 0.008 | [2] 0.032 | [3] -0.017 | [4] -0.013 | [5] -0.007

CEP120 (UniProt Q8N960)
inactive: [1] 0.045 | [2] 0.526 | [3] 0.046 | [4] -0.009 | [5] -0.416

CHKA (UniProt P35790)
inactive: [1] -0.055 | [2] -0.023 | [3] 0.124 | [4] -0.004 | [5] 0.19

CDK13 (UniProt Q14004)
inactive: [1] 0.031 | [2] 0.019 | [3] -0.017 | [4] 0.161 | [5] -0.004

CDC42BPA isoform 6 (UniProt Q5VT25)
inactive: [1] -0.101 | [2] -0.039 | [3] 0.083 | [4] 0.031 | [5] 0.069

CHMP1B (UniProt Q7LBR1)
inactive: [1] -0.076 | [2] 0.021 | [3] 0.012 | [4] 0 | [5] -0.011

CFL1 (UniProt P23528)
inactive: [1] -0.024 | [2] -0.007 | [3] -0.039 | [4] -0.052 | [5] -0.036

CHD8 (UniProt Q9HCK8)
inactive: [1] 0.122

CDK2AP1 (UniProt O14519)
inactive: [1] 0.059

CEP128 (UniProt Q6ZU80)
inactive: [1] -0.039 | [2] 0.099 | [3] 0.216 | [4] 0.104 | [5] 0.041

CDK7 (UniProt P50613)
inactive: [1] 0.009 | [2] 0.004 | [3] 0.011 | [4] 0.028 | [5] 0.054

CDK5RAP1 (UniProt Q96SZ6)
inactive: [1] 0.056 | [2] 0.029 | [3] 0.149 | [4] 0.028 | [5] -0.023

CENPS (UniProt Q8N2Z9)
inactive: [1] -0.004 | [2] 0.046 | [3] 0.094 | [4] -0.014 | [5] -0.047

CDK9 isoform 2 (UniProt P50750)
inactive: [1] -0.007 | [2] -0.03 | [3] 0 | [4] 0.089 | [5] 0
